Test results reported in patent EP0773287A1, “Immortalised embryonic hyppocampal cells and their use” (BAYER AG, priority 1995, dated 1997).
At least one structure is not confirmed: it was looked up by name or label, or the drawing left a doubt.

System: HC e/n XVB cells
Assay: Whole-cell patch-clamp recording of ligand-activated currents
Type: cell-based, murine
Experimental: Electrophysiological setup: Membrane currents were measured with the patchclamp technique in the whole-cell recording configuration (Hamill et al. 1981, Pfluegers Arch. 391:85-100). Current signals were amplified with conventional electronics (EPC-9 amplifier, HEKA Elektronik GmbH, Lambrecht, Germany), filtered at 10kHz, and sampled at 5 kHz by an interface connected to an IBM AT-compatible computer system, which also served as a stimulus generator.
Solutions and electrodes: The standard bathing solution contained (in mM): Nacl 150, KCL 5, MgCl2 1.8, HEPES 5, and glucose 10. In some experiments an equimolar amount of NaCl was replaced by 5mM BaCl2. Recording pipettes had resistances about 5MΩ (Hilgenberg, Malsfeld, Germany). The pipettes contained (in mM): KCL 140, CaCl2 0.5, EGTA 5, MgCl2 2, and HEPES 10. The pH was adjusted to 7.4. In some experiments the pipette solution was designed to minimize the contribution of voltage-activated currents. In this case, investigating the ligand-activated currents, the pipette solution contained (in mM): CsCl 140, EGTA 10, and HEPES 10.
Ligands were dissolved in the extracellular saline solution and applied via an U-tube application system. To record ligand-induced currents, the membrane potential was clamped to -70mV. For measurements of voltage-activated currents, cells were held at -70mV and every second the membrane was stepped through a 50 msec. de- or hyperpolarising test pulse to a potential between -170 and +20 mV.

[1] = undifferentiated HC e/n XVB cells

Compound	ligand-activated currents (electrophysiological recordings) (XV. B, membrane potential clamped to -70mV)	ligand-induced inward currents (result in words) [1]	ligand-induced inward currents (result in words) (differentiated HC e/n XVB cells, AMPA 100µM, NMDA 1mM, kainate 1mM, glutamate 1mM)
CC(=O)OCC[N+](C)(C)C [Acetylcholine, acetylcholine]	+ / -	only a minority	
N[C@@H](CCC(=O)O)C(=O)O [Glutamate, L-glutamate]		only small inward currents	evoked responses
